# Measurements published in PMC9054797.
# The chains behind the UniProt entries cited, without tags or fusion partners.
# UniProt P09104: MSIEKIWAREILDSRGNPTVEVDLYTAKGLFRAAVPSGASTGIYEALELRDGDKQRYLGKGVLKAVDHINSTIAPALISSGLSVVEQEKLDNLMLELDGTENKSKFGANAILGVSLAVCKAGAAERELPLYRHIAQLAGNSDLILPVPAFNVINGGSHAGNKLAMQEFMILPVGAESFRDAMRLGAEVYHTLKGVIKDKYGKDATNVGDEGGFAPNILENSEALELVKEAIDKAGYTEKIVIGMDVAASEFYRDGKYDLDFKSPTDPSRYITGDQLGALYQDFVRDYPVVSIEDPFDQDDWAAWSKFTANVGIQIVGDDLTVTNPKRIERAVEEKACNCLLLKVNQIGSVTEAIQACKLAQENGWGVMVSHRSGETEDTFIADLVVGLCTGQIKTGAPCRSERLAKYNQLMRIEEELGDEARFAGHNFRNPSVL
# These are yes or no findings as the source states them, for the method shown. Binding seen in cells or lysates may run through a third protein. Some binding calls cover weakened binding; strength is not graded here.
# Target: T1, Neuroblastoma suppressor of tumorigenicity 1 (human) (UniProt P41271)
# T1 sequence: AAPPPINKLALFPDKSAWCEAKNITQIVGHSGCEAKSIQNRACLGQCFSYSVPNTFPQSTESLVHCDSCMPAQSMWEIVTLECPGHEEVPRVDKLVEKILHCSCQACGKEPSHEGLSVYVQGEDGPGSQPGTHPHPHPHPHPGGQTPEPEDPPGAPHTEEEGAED
# Assay: co-IP; cell lysate in low-salt IP buffer; IgG, GFP or FLAG antibody (1 µg) overnight, protein A/G beads 2 h, western blot
substance,measurement,value
Neuron-specific enolase (from UniProt P09104 1-434) (enzyme),binding,binds
